Assay results reported in PMC5044835, “Crystal Structure of the Human Astrovirus Capsid Protein” (Journal of Virology, 2016).
These are yes or no findings as the source states them, for the method shown.

Protein sequences, listed by entry. Tags and fused reporters are not part of them. Lines headed by an entry give the natural chain unless they say otherwise; changes in a name come on top.
UniProt Q9IFX1: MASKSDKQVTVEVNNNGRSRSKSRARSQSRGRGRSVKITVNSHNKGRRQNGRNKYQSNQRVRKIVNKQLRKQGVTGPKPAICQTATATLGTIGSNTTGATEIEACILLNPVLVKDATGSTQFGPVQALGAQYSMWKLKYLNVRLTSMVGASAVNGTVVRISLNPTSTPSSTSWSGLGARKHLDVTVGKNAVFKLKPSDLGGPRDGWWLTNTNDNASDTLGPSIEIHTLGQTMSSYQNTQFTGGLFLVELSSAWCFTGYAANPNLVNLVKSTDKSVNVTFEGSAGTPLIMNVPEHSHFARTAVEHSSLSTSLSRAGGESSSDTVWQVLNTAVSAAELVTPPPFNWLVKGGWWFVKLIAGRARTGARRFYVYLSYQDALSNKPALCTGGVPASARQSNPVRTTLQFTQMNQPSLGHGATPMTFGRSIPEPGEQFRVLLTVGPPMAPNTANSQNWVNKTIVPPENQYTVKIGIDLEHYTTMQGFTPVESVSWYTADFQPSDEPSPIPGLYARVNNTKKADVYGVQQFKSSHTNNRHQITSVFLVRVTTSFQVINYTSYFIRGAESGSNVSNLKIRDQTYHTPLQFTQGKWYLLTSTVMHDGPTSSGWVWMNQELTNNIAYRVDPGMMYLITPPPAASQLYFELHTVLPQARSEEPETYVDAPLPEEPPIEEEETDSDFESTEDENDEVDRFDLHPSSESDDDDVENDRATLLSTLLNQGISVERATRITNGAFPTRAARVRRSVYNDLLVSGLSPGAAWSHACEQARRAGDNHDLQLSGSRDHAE

Assays:
Test in all cases: SEC; gel filtration on a HiLoad Superdex 200 16/60 column (S200); single peak, apparent molecular mass ~30 kDa; both purified
[1] = biological target: HAstV-8 VP90^71–415 (amino acids 71 to 415 of the capsid protein precursor VP90 of human astrovirus serotype 8) (human astrovirus serotype 8 (HAstV-8), strain Yuc8) (UniProt Q9IFX1)
[2] = biological target: HAstV-8 VP90^71–283 (human astrovirus serotype 8 (HAstV-8)) (UniProt Q9IFX1)
[3] = biological target: HAstV-8 VP90^71–313 (human astrovirus serotype 8 (HAstV-8)) (UniProt Q9IFX1)

Substance: HAstV-8 VP90^71–415 (amino acids 71 to 415 of the capsid protein precursor VP90 of human astrovirus serotype 8) (from UniProt Q9IFX1 71-415) (domain or fragment)
- binding [1]: no binding

Substance: HAstV-8 VP90^71–283 (from UniProt Q9IFX1 71-283) (domain or fragment)
- binding [2]: no binding

Substance: HAstV-8 VP90^71–313 (from UniProt Q9IFX1 71-313) (domain or fragment)
- binding [3]: no binding
